The text below walks through data of PMC7819943, “Rice protein-binding microarrays: a tool to detect cis-acting elements near promoter regions in rice”.

This is one part of the list.

This assay deals with T1, OsSMF1 (Oryza sativa, UniProt Q6ZLB0 1-436).
T1 sequence: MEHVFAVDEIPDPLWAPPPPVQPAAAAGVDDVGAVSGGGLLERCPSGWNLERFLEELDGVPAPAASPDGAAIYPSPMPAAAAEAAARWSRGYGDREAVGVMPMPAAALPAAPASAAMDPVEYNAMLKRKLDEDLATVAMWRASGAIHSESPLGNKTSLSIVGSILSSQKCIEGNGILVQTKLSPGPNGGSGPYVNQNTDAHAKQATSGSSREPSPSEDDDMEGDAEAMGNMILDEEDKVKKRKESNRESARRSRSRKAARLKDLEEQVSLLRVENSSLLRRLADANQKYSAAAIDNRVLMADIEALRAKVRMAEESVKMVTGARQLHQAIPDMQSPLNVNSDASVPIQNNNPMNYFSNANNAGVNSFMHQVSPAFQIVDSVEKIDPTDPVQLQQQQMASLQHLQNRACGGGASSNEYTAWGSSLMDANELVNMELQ
As to the kind of experiment: protein-binding microarray (RPBM); PBS, 2% BSA, 51.3 ng/ul salmon testes DNA, 50 uM zinc acetate, 200 nM TF, 25 C, 1 h; high values mean tight binding. Particulars: protein: recombinant; tags: N-terminal polyhistidine and DsRed monomer fusion (pET32a); chain copies: 2; label: CyDye5-dUTP incorporated in the synthesized complementary strand; 3' TTTTT single-stranded linker to array surface; dsDNA, one strand shown. Put shortly: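 Using Ni–NTA, transcription factors fused N-terminally to polyhistidine and DsRed were purified after expression in E. coli BL21-CodonPlus. These were incubated at 200 nM with a blocked, double-stranded custom Agilent array for 1 h at 25 °C in a buffer containing 50 µM zinc acetate, and the array was washed. The binding signal is per-feature fluorescence intensity (arbitrary units) on an Axon 4000B scanner.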
In the case of “CCACACAGCGATAATCGAGCGGATTGGACCAAAGTACGAGCGGAGTCACCTAGTGCAG”, the binding signal is 38200 fluorescence intensity (a.u.).
Next, “GCCTCTTGCATTTGCTGCCGCCGCCGCCCCGACCGCCGCACGGAGTCACCTAGTGCAG”: 3260 fluorescence intensity (a.u.).
To “TTCTTTGAATGTGAGTTGACATGCTTGTTTTCTCATCAGGCGGAGTCACCTAGTGCAG” belongs 3370 fluorescence intensity (a.u.); to “TATTTTAAATGGGTATCCATATATCCGATGTGACACGGCACGGAGTCACCTAGTGCAG”, 4630 fluorescence intensity (a.u.).
Next, “CGGGTAGGGTGGGGTGGGGCGGGGTGGGGTTGGCGGCGACCGGAGTCACCTAGTGCAG”: 5320 fluorescence intensity (a.u.).
Regarding “GCACGACCGCGTGCACATGCTCGTCGTGGCAGTGCTTCTTCGGAGTCACCTAGTGCAG”, the binding signal was 3810 fluorescence intensity (a.u.).
Next, “AAATACTTTGAATTCCACGTATAACTGCACACCATGTGTTCGGAGTCACCTAGTGCAG”: 6760 fluorescence intensity (a.u.).
To “TTGGAAGTTTATGTGTGTAGAAAAGTTTTGATGTAATGAACGGAGTCACCTAGTGCAG” belongs 44400 fluorescence intensity (a.u.); to “CACCAATCGACATGGCGTCAGCAGGAGAAAACCGGCGGCACGGAGTCACCTAGTGCAG”, 5310 fluorescence intensity (a.u.); to “GCAAGTTTAGGAACCGGAATGACACAGTCGAACAAGTTTGCGGAGTCACCTAGTGCAG”, 4090 fluorescence intensity (a.u.).
Next, “AAGAGATGTGGCAATCTTGAAGAGAAAATTATCTACCTTGCGGAGTCACCTAGTGCAG”: 3430 fluorescence intensity (a.u.); “GAACTCTGAAGAAAGTAGTGTTGCGTTGGCAAACCCTTCTCGGAGTCACCTAGTGCAG”: 4230 fluorescence intensity (a.u.).
For “TCACTCATTTATCCGATGTGATGGCTGAGTCAGCATGGGACGGAGTCACCTAGTGCAG”, the binding signal was 21100 fluorescence intensity (a.u.).
Next, “CCCAGTGCCCCGGCGGCCAGATCTCCTCATGCCACTCGTGCGGAGTCACCTAGTGCAG”: 3350 fluorescence intensity (a.u.); “CCACTGACAAGTGGGCCCCACCATGACGTTATCTCCTTCACGGAGTCACCTAGTGCAG”: 4910 fluorescence intensity (a.u.); “TATAAGCACAATGCAGCCTAGTTGTTGCCGTGACCTGAGTCGGAGTCACCTAGTGCAG”: 3180 fluorescence intensity (a.u.).
To “ACCACCATCATCTCCAGTCGCCTAGTCACCTTTCTTGTAGCGGAGTCACCTAGTGCAG” belongs 7480 fluorescence intensity (a.u.); to “TGCCAGGTGCGTGCGTGCGTGCGTCTCCTCCCCTTCCCTCCGGAGTCACCTAGTGCAG”, 10200 fluorescence intensity (a.u.); to “GTCACCGAAGGCGATTAAGGGACAAGCTATAGCTGATTTTCGGAGTCACCTAGTGCAG”, 46100 fluorescence intensity (a.u.).
To “AGTCCCACCACATGACTCAACAACACATTCTCTGTCTCTCCGGAGTCACCTAGTGCAG” belongs 7820 fluorescence intensity (a.u.).
For “GCCGTGAGCCCACAGCGGGTGAGGCGGACACGTCGCCCACCGGAGTCACCTAGTGCAG”, the binding signal was 3990 fluorescence intensity (a.u.).
Next, “AAATTAACAATCAGATATAGGGGCAATACAGTAATTCACGCGGAGTCACCTAGTGCAG”: 3170 fluorescence intensity (a.u.); “ACACAGAGGCCGTGTTTAGTTCTCTCAAATTCTCAACTTTCGGAGTCACCTAGTGCAG”: 25400 fluorescence intensity (a.u.); “TTATTAATTATTTTATTTGTGACTTACTTTATTGTCTACACGGAGTCACCTAGTGCAG”: 3500 fluorescence intensity (a.u.).
To “CGGATTGGACGCCCCGACGGTCTTCCCCGGCAGCGAGGATCGGAGTCACCTAGTGCAG” belongs 3580 fluorescence intensity (a.u.).
To “CGTCCATGACACGTGGGGCCCGGCAGTGCCGAATCGCCCTCGGAGTCACCTAGTGCAG” belongs 12100 fluorescence intensity (a.u.); to “GCTTGCGTCGTAAGCCGGCTTACGTCGTAAGCTGGCTTCTCGGAGTCACCTAGTGCAG”, 3190 fluorescence intensity (a.u.); to “TGTAATTATAGTACAATCGTAGTGTAATTACACTGTAACTCGGAGTCACCTAGTGCAG”, 3480 fluorescence intensity (a.u.).
Take “AGAATAATTATATTGGGATGGGATAAAGTATGAATTTTCTCGGAGTCACCTAGTGCAG”: the binding signal is 3240 fluorescence intensity (a.u.).
As to “CCGTATACATAGCTAGCTGTCTGTGATGCATGCATGGTCACGGAGTCACCTAGTGCAG”, the binding signal is 44200 fluorescence intensity (a.u.).
Next, “GCCGTCTCGCCTCCTATTCTGTCGCGACGCCACCACTGCTCGGAGTCACCTAGTGCAG”: 3440 fluorescence intensity (a.u.); “TAATCTAGTTGGGCCGCCTAGTCAGACGCATGAACGGCCACGGAGTCACCTAGTGCAG”: 36000 fluorescence intensity (a.u.); “ACCCGCACGTCTTCCGCGGCCACGCCACCGTCGATCCCCGCGGAGTCACCTAGTGCAG”: 3690 fluorescence intensity (a.u.).
Next, “GCGCCACGGCTACACGACTCCGCGCGGGTGCGAGCGGCGGCGGAGTCACCTAGTGCAG”: 3620 fluorescence intensity (a.u.).
Next, “GTTAGGGGATGAGCGGAGGAAATCGTCATCGGTGGCAGTGCGGAGTCACCTAGTGCAG”: 5200 fluorescence intensity (a.u.); “GAATGTTAAACACACGTTACTCTACCACCTGGTGCAATGGCGGAGTCACCTAGTGCAG”: 3150 fluorescence intensity (a.u.).
On to “TTCGTGGTTTCGTTCAGCTTGATTTCGCTTGACACATCGACGGAGTCACCTAGTGCAG”, for which the binding signal was 4040 fluorescence intensity (a.u.).
Next, “TTTGTACCAGCTGCCTTCTTTCCACCAGTCGACGACGACACGGAGTCACCTAGTGCAG”: 3560 fluorescence intensity (a.u.).
To “TAGGCTAGCTGTAGCCACAAGCTTCTTACACCTCACGTTTCGGAGTCACCTAGTGCAG” belongs 4240 fluorescence intensity (a.u.); to “ATAACAACCCGGCCCCGCCGCCACTCCATCCCCGACTCACCGGAGTCACCTAGTGCAG”, 3700 fluorescence intensity (a.u.).
To “GAAGATGGCTACCGTATTGTCATCAATGATGGCCCCAGTGCGGAGTCACCTAGTGCAG” belongs 3640 fluorescence intensity (a.u.).
As for “GAGACAAAACATCGTTGTTATACATAACAACGGCTTAACGCGGAGTCACCTAGTGCAG”, the binding signal is 37000 fluorescence intensity (a.u.).
